Experimental data reported in publication PMC12651396.
No constants are given. Whether binding was seen depends on the method and setting. In cells and extracts the contact can be indirect. These calls come from enrichment with a bait or labelling near it, and not all partners need be listed. Sequences can lack the tags named with a protein.

Sequences of proteins named here, by UniProt entry; tags and fusion partners are left off.
UniProt P67809: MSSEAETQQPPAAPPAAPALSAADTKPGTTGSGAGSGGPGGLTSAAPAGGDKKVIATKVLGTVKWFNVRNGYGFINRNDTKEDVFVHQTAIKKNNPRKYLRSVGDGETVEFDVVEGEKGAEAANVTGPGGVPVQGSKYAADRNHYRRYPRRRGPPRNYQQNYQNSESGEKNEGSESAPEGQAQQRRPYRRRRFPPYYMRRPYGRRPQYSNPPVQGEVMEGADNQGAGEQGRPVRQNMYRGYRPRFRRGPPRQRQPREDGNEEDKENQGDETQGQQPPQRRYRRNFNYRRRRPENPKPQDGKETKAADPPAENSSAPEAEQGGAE

Target: T1, FLAG-tagged fibroblast growth factor 12 (FGF12) (human) (UniProt P61328)
T1 sequence: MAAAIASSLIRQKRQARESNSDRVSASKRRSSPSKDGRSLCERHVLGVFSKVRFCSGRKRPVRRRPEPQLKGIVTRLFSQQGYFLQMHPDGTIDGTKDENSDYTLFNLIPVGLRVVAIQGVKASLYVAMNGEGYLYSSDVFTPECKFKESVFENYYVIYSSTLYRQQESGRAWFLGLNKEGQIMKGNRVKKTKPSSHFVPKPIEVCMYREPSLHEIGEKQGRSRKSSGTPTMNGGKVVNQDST
Assay: affinity purification with mass spectrometry; lysates of LNCaP FGF12 and control cells; anti-Flag antibody or normal IgG, Protein A/G agarose beads; eluted proteins analysed by mass spectrometry, triplicate repeats

Q: For “Y-box binding protein 1 (YB1) (from UniProt P67809 1-324)”, which binding is on record?
A: binds
